Source: PubChem BioAssay AID262 (DTP/NCI, 2004)
The list is a part of this screen's results and no random one: it gathers tests that were run many times, whatever their T/C, doses with no T/C, and many T/C values between a quarter and a half above the control. Further doses and runs are listed elsewhere. T/C: endpoint of the treated group in % of that of the vehicle group. Schedules are NCI's codes, read here as Q, the interval in days (D) or hours (H), X, the number of doses. Some T/C values are followed by the survivors on the day toxicity was checked, most often the fifth; without a count, all were alive then. Some entries give survivors of the animals treated and no T/C: the source holds a T/C of zero for them, seemingly a mark for toxic or unscored doses. Counts of survivors are from the toxicity check (mostly the fifth day) where no day follows; animals may have died later. Some doses were run more than once; the values are given in rising order. Starred links: 1 amine or outer side, 2 acyl side, 3 side chain; linkers in the order of their positions; H or OH if unused. Positions of bridges follow the written chain, without caps; N, C: chain ends. Non-standard residues stand in square brackets, D forms with d. Residues, ends and D or L forms follow the SMILES beside them. Chains are numbered I, II in the order given. Actinocin(9to1) = Cc1c2oc3c(C)ccc(C(=O)[*:1])c3nc-2c(C(=O)[*:2])c(N)c1=O; aThr = C[C@H](O)[C@H](N)C(=O)O; NMeV = CN[C@H](C(=O)O)C(C)C; Sar = CNCC(=O)O

Tested on: LX-1 lung xenograft sc, nude mice, tumor weight
Experiment: NCI In Vivo Anticancer Drug Screen. Data for tumor model Human Lung LX-1 Xenograft (subcutaneous) in NU/NU Swiss (nude) mice
Conditions: T/C endpoint: optimum tumor weight change, higher T/C = larger tumour
Protocol: The antitumor activity of compounds was measured in mice bearing transplantable tumors. Survival or tumor size were measured and the results are expressed as the measurement made in the treated group (T) divided by the measurement made in the vehicle treated control group (C). The tumor model used in this assay is Human Lung LX-1 Xenograft (subcutaneous) in NU/NU Swiss (nude) mice

[1] = dose: 100.0 mg/kg/injection, schedule: Q04DX003 (ip), vehicle: Klucel (hydroxypropylcellulose) (HPC)
[2] = dose: 200.0 mg/kg/injection, schedule: Q04DX003 (ip), vehicle: Klucel (hydroxypropylcellulose) (HPC)
[3] = dose: 400.0 mg/kg/injection, schedule: Q04DX003 (ip), vehicle: Klucel (hydroxypropylcellulose) (HPC)
[4] = dose: 100.0 mg/kg/injection, schedule: Q04DX003 (ip), vehicle: saline
[5] = dose: 400.0 mg/kg/injection, schedule: Q04DX003 (ip), vehicle: saline

## CN(C)c1nc(N(C)C)nc(N(C)C)n1
dose: 120.0 mg/kg/injection, schedule: Q07DX005 (ip), vehicle: Klucel (hydroxypropylcellulose) (HPC), evaluated on day 56
  T/C: 136 % of control
dose: 240.0 mg/kg/injection, schedule: Q01DX005 (ip), vehicle: Klucel (hydroxypropylcellulose) (HPC)
  survivor count: 1 of 4
dose: 240.0 mg/kg/injection, schedule: Q04DX005 (ip), vehicle: Klucel (hydroxypropylcellulose) (HPC)
  survivor count: 1 of 5 and 3 of 5
dose: 240.0 mg/kg/injection, schedule: Q07DX005 (ip), vehicle: Klucel (hydroxypropylcellulose) (HPC)
  survivor count: 2 of 5
dose: 480.0 mg/kg/injection, schedule: Q07DX005 (ip), vehicle: Klucel (hydroxypropylcellulose) (HPC)
  survivor count: 3 of 5

## Cc1c(N)nc(C(CC(N)=O)NCC(N)C(N)=O)nc1C(=O)NC(C(=O)NC(C)C(O)C(C)C(=O)NC(C(=O)NCCc1nc(-c2nc(C(=O)NCCCNC(C)c3ccccc3)cs2)cs1)C(C)O)C(OC1OC(CO)C(O)C(O)C1OC1OC(CO)C(O)C(OC(N)=O)C1O)c1cnc[nH]1 (centres undefined)
dose: 60.0 mg/kg/injection, schedule: Q04DX003 (ip), vehicle: saline
  survivor count: 2 of 5 on day 36
dose: 120.0 mg/kg/injection, schedule: Q04DX003 (ip), vehicle: saline
  survivor count: 0 of 5 on day 36

## Nc1nc(N)c2cc(CNc3ccc(C(=O)NC(CC(=O)O)CC(=O)O)cc3)ccc2n1
dose: 50.0 mg/kg/injection, schedule: Q04DX003 (ip), vehicle: Klucel (hydroxypropylcellulose) (HPC)
  survivor count: 3 of 5 on day 36
[1]
  survivor count: 2 of 5 on day 36
[2]
  survivor count: 2 of 5 on day 36
[3]
  survivor count: 0 of 5 on day 36

## CO[C@H]1C[C@](C)(O)Cc2cc3c(c(O)c21)C(=O)c1c(O)cc2c(c1C3=O)O[C@@H]1O[C@@]2(C)[C@H](O)[C@@H](N(C)C)[C@@H]1O
dose: 25.0 mg/kg/injection, schedule: Q04DX003 (ip), vehicle: other
  survivor count: 3 of 5 on day 36

## N[C@@H](Cc1ccc(N(CCCl)CCCl)cc1)C(=O)O
dose: 1.0 mg/kg/injection, schedule: Q04DX003 (ip), vehicle: suspension in saline, evaluated on day 34
  T/C: 129 % of control [4 of 5 alive on day 36]

## O=C1c2c(O)ccc(O)c2C(=O)c2c(NCCNCCO)ccc(NCCNCCO)c21
dose: 2.5 mg/kg/injection, schedule: Q04DX003 (ip), vehicle: water
  survivor count: 0 of 5 on day 36 and 2 of 5 on day 36

## O=c1[nH]cc(F)c(=O)[nH]1
dose: 80.0 mg/kg/injection, schedule: Q07DX004 (ip), vehicle: saline
  survivor count: 3 of 6

## O=c1[nH]c2c(ccc3cnccc32)c2c1CCC2
dose: 50.0 mg/kg/injection, schedule: Q04DX003 (ip), vehicle: saline
  survivor count: 2 of 5 on day 36
[4]
  survivor count: 2 of 5 on day 36
dose: 200.0 mg/kg/injection, schedule: Q04DX003 (ip), vehicle: saline
  survivor count: 0 of 5 on day 36
[5]
  survivor count: 0 of 5 on day 36

## COc1cccc2c1C(=O)c1c(O)c3c(c(O)c1C2=O)C[C@@](O)(C(C)=O)C[C@@H]3OC1CC(N)C(O)C(C)O1 (some centres undefined)
dose: 2.0 mg/kg/injection, schedule: Q04DX003 (ip), vehicle: saline
  survivor count: 3 of 5 on day 36

## CCc1ccccc1N1CCN(C(=O)c2cc(OC)c(OC)c(OC)c2)CC1
dose: 25.0 mg/kg/injection, schedule: Q04DX003 (ip), vehicle: Klucel (hydroxypropylcellulose) (HPC), evaluated on day 33
  T/C: 141 % of control
[1]
  survivor count: 3 of 5 on day 36
[2]
  survivor count: 1 of 5 on day 36
[3]
  survivor count: 0 of 5 on day 36
dose: 800.0 mg/kg/injection, schedule: Q04DX003 (ip), vehicle: Klucel (hydroxypropylcellulose) (HPC)
  survivor count: 1 of 5 on day 36

## OC(CBr)C(O)C(O)C(O)CBr (centres undefined)
[1]
  survivor count: 3 of 5 on day 36

## COc1ccc(C(N)=O)cc1N=NN(C)C
dose: 37.5 mg/kg/injection, schedule: Q04DX003 (ip), vehicle: Klucel (hydroxypropylcellulose) (HPC), evaluated on day 33
  T/C: 29 % of control
dose: 37.5 mg/kg/injection, schedule: Q04DX003 (ip), vehicle: Klucel (hydroxypropylcellulose) (HPC), evaluated on day 34
  T/C: 53 % of control
dose: 37.5 mg/kg/injection, schedule: Q04DX003 (ip), vehicle: Klucel (hydroxypropylcellulose) (HPC), evaluated on day 36
  T/C: 34 % of control
dose: 37.5 mg/kg/injection, schedule: Q04DX003 (ip), vehicle: Klucel (hydroxypropylcellulose) (HPC), evaluated on day 37
  T/C: 68 % of control
dose: 75.0 mg/kg/injection, schedule: Q04DX003 (ip), vehicle: Klucel (hydroxypropylcellulose) (HPC), evaluated on day 33
  T/C: 18 % of control
dose: 75.0 mg/kg/injection, schedule: Q04DX003 (ip), vehicle: Klucel (hydroxypropylcellulose) (HPC), evaluated on day 34
  T/C: 22 % of control
dose: 75.0 mg/kg/injection, schedule: Q04DX003 (ip), vehicle: Klucel (hydroxypropylcellulose) (HPC), evaluated on day 36
  T/C: 52 % of control
dose: 75.0 mg/kg/injection, schedule: Q04DX003 (ip), vehicle: Klucel (hydroxypropylcellulose) (HPC), evaluated on day 37
  T/C: 11 % of control
dose: 150.0 mg/kg/injection, schedule: Q04DX003 (ip), vehicle: Klucel (hydroxypropylcellulose) (HPC), evaluated on day 34
  T/C: 12 % of control
dose: 150.0 mg/kg/injection, schedule: Q04DX003 (ip), vehicle: Klucel (hydroxypropylcellulose) (HPC), evaluated on day 36
  T/C: 10 % of control
dose: 150.0 mg/kg/injection, schedule: Q04DX003 (ip), vehicle: Klucel (hydroxypropylcellulose) (HPC)
  survivor count: 4 of 7 on day 34 and 3 of 5 on day 37
dose: 300.0 mg/kg/injection, schedule: Q04DX003 (ip), vehicle: Klucel (hydroxypropylcellulose) (HPC)
  survivor count: 0 of 5 on day 36, 0 of 5 on day 37, 0 of 7 on day 34, 1 of 5 on day 36

## CS(=O)(=O)OCCN(CCOS(C)(=O)=O)c1ccc(C=Nc2ccc(-c3csc(COc4ccccc4)n3)cc2)cc1
[2]
  survivor count: 1 of 5 on day 36
[3]
  survivor count: 0 of 5 on day 36

## N/C(=N\O)c1cn(C2OC(CO)C(O)C2O)c2ncnc(N)c12 (centres undefined)
dose: 40.0 mg/kg/injection, schedule: Q04DX003 (ip), vehicle: Klucel (hydroxypropylcellulose) (HPC)
  survivor count: 0 of 5 on day 36

## O=C/C(Cl)=C(/Cl)C(=O)O
dose: 25.0 mg/kg/injection, schedule: Q04DX003 (ip), vehicle: saline with Tween-80
  survivor count: 1 of 5 on day 36

## COC(OC(CO)C(O)S(=O)(=O)O)C(O)S(=O)(=O)O (centres undefined)
[4]
  survivor count: 2 of 4 on day 41
[5]
  survivor count: 2 of 5 on day 41
dose: 800.0 mg/kg/injection, schedule: Q04DX003 (ip), vehicle: saline
  survivor count: 0 of 5 on day 41
dose: 1600.0 mg/kg/injection, schedule: Q04DX003 (ip), vehicle: saline
  survivor count: 0 of 5 on day 41
dose: 1600.0 mg/kg/injection, schedule: Q04DX003 (ip), vehicle: suspension in saline
  survivor count: 0 of 5 on day 36

## Cc1c2oc3c(C)ccc(C(=O)N[C@@H]4C(=O)N[C@H](C(C)C)C(=O)N5CCC[C@H]5C(=O)N(C)CC(=O)N(C)[C@@H](C(C)C)C(=O)O[C@H]4C)c3nc-2c(C(=O)N[C@@H]2C(=O)N[C@H](C(C)C)C(=O)N3CCC[C@H]3C(=O)N(C)CC(=O)N(C)[C@@H](C(C)C)C(=O)O[C@H]2C)c(N)c1=O (I: [aThr][dV]P[Sar][NMeV] / II: [aThr][dV]P[Sar][NMeV]; ester I:1-I:C, II:1-II:C; linker I:N-II:N via Actinocin(9to1))
dose: 75.0 micrograms/kg/injection, schedule: Q04DX003 (ip), vehicle: saline, evaluated on day 33
  T/C: 133 % of control

## Cc1c(N)nc([C@H](CC(N)=O)NC[C@H](N)C(N)=O)nc1C(=O)N[C@H](C(=O)N[C@H](C)[C@@H](O)CC(=O)N[C@H](C(=O)NC(O[C@@H]1O[C@@H](C)[C@@H](N)[C@@H](O)[C@H]1O)C(O)c1nc(-c2nc(C(=O)NCCCCN)cs2)cs1)[C@@H](C)O)[C@@H](O[C@@H]1O[C@@H](CO)[C@@H](O)[C@H](O)[C@@H]1O[C@H]1O[C@H](CO)[C@@H](O)[C@H](OC(N)=O)[C@@H]1O)c1c[nH]cn1 (some centres undefined)
dose: 4.0 mg/kg/injection, schedule: Q04DX003 (ip), vehicle: saline
  survivor count: 3 of 5 on day 35
dose: 8.0 mg/kg/injection, schedule: Q04DX003 (ip), vehicle: saline
  survivor count: 1 of 5 on day 35
dose: 16.0 mg/kg/injection, schedule: Q04DX003 (ip), vehicle: saline
  survivor count: 2 of 5 on day 35
dose: 32.0 mg/kg/injection, schedule: Q04DX003 (ip), vehicle: saline
  survivor count: 0 of 5 on day 35

## CC(=O)OCC(=O)[C@@]12OC(C)(C)O[C@@H]1C[C@H]1[C@@H]3CC(C=O)=C4C=C(OCCCl)CC[C@]4(C)[C@@]3(F)[C@@H](O)C[C@@]12C
[1]
  survivor count: 3 of 5 on day 34
[2]
  survivor count: 1 of 5 on day 34
